Results from PubChem BioAssay AID330 (DTP/NCI, 2004).
The list does not hold the whole screen: it is rich in T/C values a quarter to a half above the control, in often repeated tests (any T/C) and in doses without a T/C. Further doses and runs are listed elsewhere. T/C is the treated group as % of the vehicle group. Some entries give survivors of the animals treated and no T/C: the source files T/C as zero there, which appears to mark a toxic dose or a test without result, not a measured value. Some survivor counts are full or nearly so, which does not show that the dose was tolerated: the source hardly ever lists a survival T/C far under the control, and the zero likely stands for such cases as well. Survivors were counted at the toxicity check, usually on the fifth day, unless a day is given; later deaths do not show. Schedules are NCI's codes, read here as Q, the interval in days (D) or hours (H), X, the number of doses. Some entries hold several experiments; the results are listed from low to high. Marks such as (2×) count equal records among those shown. For survival time, the PubChem record calls one and a half times the control and up active, and a quarter to a half above the control has no call in these data; cut-offs in other NCI protocols can differ. Some T/C values carry the count of animals alive at the toxicity check (mostly the fifth day); without a count, all were alive then. Some schedule codes hold Z or #, which are not explained here.

Tested on: P388 leukemia ip, CD2F1 mice, survival T/C
Test: NCI In Vivo Anticancer Drug Screen. Data for tumor model P388 Leukemia (intraperitoneal) in CD2F1 (CDF1) mice
Details: T/C endpoint: median survival time, higher T/C = longer survival

COc1cccc2c1C(=O)c1c(O)c3c(c(O)c1C2=O)C[C@@](O)(C(=O)CO)C[C@@H]3OC1CC(N)C(O)C(C)O1 (stereo partly specified)
T/C (dose: 4.0 mg/kg/injection, schedule: Q04DX003 (ip), vehicle: saline, evaluated on day 5): 177, 184, 194, 243, 264 % of control
T/C (dose: 4.0 mg/kg/injection, schedule: Q04DX003 (ip), vehicle: saline, evaluated on day 8): 148 % of control
T/C (dose: 4.0 mg/kg/injection, schedule: Q04DX003 (ip), vehicle: saline, evaluated on day 9): 163 % of control
T/C (dose: 4.0 mg/kg/injection, schedule: Q04DX003 (ip), vehicle: saline, evaluated on day 10): 116 % of control
T/C (dose: 4.0 mg/kg/injection, schedule: Q04DX003 (ip), vehicle: saline, evaluated on day 30): 108, 114 (2×), 120, 125 (2×), 133, 135, 137 (3×), 138, 140 (2×), 149, 153, 156, 162, 173, 196 % of control
T/C (dose: 4.0 mg/kg/injection, schedule: Q04DX003 (ip), vehicle: saline, evaluated on day 45): 193, 206, 225 % of control (2×)
T/C (dose: 4.0 mg/kg/injection, schedule: Q04DX003 (ip), vehicle: saline, evaluated on day 60): 209, 220, 245, 280 % of control
T/C (dose: 4.0 mg/kg/injection, schedule: Q04DX003 (ip), vehicle: water, evaluated on day 30, list 1 of 2): 116, 118, 124, 125 (2×), 126, 128, 129, 130, 132 (2×), 133, 134, 136, 138 (2×), 139, 141, 142, 144, 145 (2×), 146 (2×), 148, 150, 153, 155, 157, 162, 163, 166, 169, 180, 203 % of control
T/C (dose: 4.0 mg/kg/injection, schedule: Q04DX003 (ip), vehicle: water, evaluated on day 30, list 2 of 2): 114, 116, 120, 124, 125, 126, 127, 129, 130, 131, 132, 133, 134, 135, 137, 138, 139, 141 (2×), 143, 145 (3×), 146, 148, 149, 152, 155, 156, 160, 163, 165, 166, 169, 183, 228 % of control
T/C (dose: 4.0 mg/kg/injection, schedule: Q04DX003 (ip), vehicle: water, evaluated on day 35): 124, 126 (2×), 134, 138 (2×), 141, 143, 145, 148, 153, 156, 157, 161 % of control
T/C (dose: 4.0 mg/kg/injection, schedule: Q04DX003 (ip), vehicle: water, evaluated on day 40): 129, 145, 147, 151, 163 % of control
T/C (dose: 4.0 mg/kg/injection, schedule: Q04DX003 (ip), vehicle: water, evaluated on day 45): 108, 117, 122, 123 (2×), 125, 126 (3×), 129 (2×), 129 [2 of 3 alive], 130, 131 (2×), 132 (2×), 133 [2 of 3 alive], 134, 135 (2×), 136 (3×), 137, 138 (3×), 140, 141 (2×), 144 (2×), 145 (2×), 145 [5 of 6 alive], 146, 149, 155, 160, 162 (3×), 163, 166, 171, 172, 175 (2×), 185, 188, 189, 208, 221, 264 % of control
T/C (dose: 4.0 mg/kg/injection, schedule: Q04DX003 (ip), vehicle: water, evaluated on day 50): 118, 128, 135, 145, 155 % of control
T/C (dose: 4.0 mg/kg/injection, schedule: Q04DX003 (ip), vehicle: water, evaluated on day 60): 117 and 146 % of control
T/C (dose: 4.0 mg/kg/injection, schedule: Q04DX003 (iv), vehicle: saline): 138 % of control
T/C (dose: 4.0 mg/kg/injection, schedule: Q## X001 (ip), vehicle: saline): 94, 98, 104, 113, 126, 131, 144 % of control
T/C (dose: 4.4 mg/kg/injection, schedule: Q01DX001 (ip), vehicle: saline, evaluated on day 5): 106 [2 of 4 alive], 133, 161 % of control
T/C (dose: 4.4 mg/kg/injection, schedule: Q01DX001 (ip), vehicle: saline, evaluated on day 9): 151 % of control
T/C (dose: 4.4 mg/kg/injection, schedule: Q01DX001 (ip), vehicle: saline, evaluated on day 30): 157, 176, 230 % of control
T/C (dose: 4.4 mg/kg/injection, schedule: Q01DX001 (ip), vehicle: saline, evaluated on day 47): 172 % of control
T/C (dose: 4.5 mg/kg/injection, schedule: Q01DX001 (ip), vehicle: saline, evaluated on day 20): 185 % of control
T/C (dose: 4.5 mg/kg/injection, schedule: Q01DX001 (ip), vehicle: saline, evaluated on day 23): 152 % of control
T/C (dose: 4.5 mg/kg/injection, schedule: Q01DX001 (ip), vehicle: saline, evaluated on day 30): 92, 125, 135, 137, 157, 160 (2×), 161 (2×), 162 (2×), 163 (2×), 166, 168 (4×), 173, 175, 176, 178 (3×), 179, 180 (2×), 181 (3×), 183, 184, 185, 186, 188 (2×), 190 (2×), 191 (2×), 193, 194 (2×), 197, 200, 204 (2×), 207, 213, 218, 220 (2×), 225, 252 % of control
T/C (dose: 4.5 mg/kg/injection, schedule: Q01DX001 (ip), vehicle: saline, evaluated on day 45): 145, 176, 179 % of control
T/C (dose: 4.5 mg/kg/injection, schedule: Q01DX001 (ip), vehicle: saline, evaluated on day 46): 185 % of control
T/C (dose: 4.5 mg/kg/injection, schedule: Q01DX001 (ip), vehicle: saline, evaluated on day 56): 172 % of control
T/C (dose: 4.5 mg/kg/injection, schedule: Q01DX001 (ip), vehicle: saline, evaluated on day 60): 212 % of control
survivor count (dose: 4.5 mg/kg/injection, schedule: Q01DX001 (ip), vehicle: saline): 2 of 6
T/C (dose: 4.5 mg/kg/injection, schedule: Q04DX003 (ip), vehicle: saline, evaluated on day 45): 136, 170, 192, 211, 212, 245, 252, 256, 279 (2×), 283 % of control
T/C (dose: 4.5 mg/kg/injection, schedule: Q04DX003 (ip), vehicle: saline, evaluated on day 60): 205 % of control
T/C (dose: 4.75 mg/kg/injection, schedule: Q01DX001 (iv), vehicle: saline): 127 % of control
T/C (dose: 5.0 mg/kg/injection, schedule: Q01DX001 (ip), vehicle: water, evaluated on day 5): 116 % of control
T/C (dose: 5.0 mg/kg/injection, schedule: Q01DX001 (ip), vehicle: water, evaluated on day 30): 166 and 223 % of control [5 of 6 alive]
T/C (dose: 5.0 mg/kg/injection, schedule: Q01DX001 (ip), vehicle: water, evaluated on day 45): 178, 179, 189, 190, 192 (2×), 199, 213 % of control
T/C (dose: 5.0 mg/kg/injection, schedule: Q04DX003 (ip), vehicle: saline, evaluated on day 8): 166 % of control
T/C (dose: 5.0 mg/kg/injection, schedule: Q04DX003 (ip), vehicle: saline, evaluated on day 10): 128 % of control
T/C (dose: 5.0 mg/kg/injection, schedule: Q04DX003 (ip), vehicle: saline, evaluated on day 45): 238 % of control
T/C (dose: 5.0 mg/kg/injection, schedule: Q04DX003 (ip), vehicle: saline, evaluated on day 60): 218 % of control
T/C (dose: 5.0 mg/kg/injection, schedule: Q04DX003 (ip), vehicle: water): 129 % of control
T/C (dose: 6.0 mg/kg/injection, schedule: Q04DX003 (ip), vehicle: saline, evaluated on day 5): 158 % of control
T/C (dose: 6.0 mg/kg/injection, schedule: Q04DX003 (ip), vehicle: saline, evaluated on day 9): 165 % of control
T/C (dose: 6.0 mg/kg/injection, schedule: Q04DX003 (ip), vehicle: saline, evaluated on day 30): 110, 115, 166 [survivors not given], 174 % of control [survivors not given]
T/C (dose: 6.0 mg/kg/injection, schedule: Q04DX003 (ip), vehicle: saline, evaluated on day 45): 120, 248, 284 % of control
T/C (dose: 6.0 mg/kg/injection, schedule: Q04DX003 (ip), vehicle: saline, evaluated on day 60): 238, 264, 466 % of control
survivor count (dose: 6.0 mg/kg/injection, schedule: Q04DX003 (ip), vehicle: saline): 10 of 10
T/C (dose: 6.0 mg/kg/injection, schedule: Q04DX003 (ip), vehicle: water): 145 % of control
survivor count (dose: 6.25 mg/kg/injection, schedule: Q01DX009 (ip), vehicle: water): 5 of 6 (2×) and 6 of 6 (2×)
T/C (dose: 6.7 mg/kg/injection, schedule: Q01DX001 (ip), vehicle: saline, evaluated on day 5): 115 [8 of 9 alive], 152, 186 % of control
T/C (dose: 6.7 mg/kg/injection, schedule: Q01DX001 (ip), vehicle: saline, evaluated on day 9): 147 % of control
T/C (dose: 6.7 mg/kg/injection, schedule: Q01DX001 (ip), vehicle: saline, evaluated on day 11): 120 % of control [8 of 9 alive]
T/C (dose: 6.7 mg/kg/injection, schedule: Q01DX001 (ip), vehicle: saline, evaluated on day 20): 189 % of control
